In paper PMC11911448 one finds binding data, which are given here for one substance.

Chains of the proteins cited; added tags and fusions are not shown.
UniProt Q6A4J8: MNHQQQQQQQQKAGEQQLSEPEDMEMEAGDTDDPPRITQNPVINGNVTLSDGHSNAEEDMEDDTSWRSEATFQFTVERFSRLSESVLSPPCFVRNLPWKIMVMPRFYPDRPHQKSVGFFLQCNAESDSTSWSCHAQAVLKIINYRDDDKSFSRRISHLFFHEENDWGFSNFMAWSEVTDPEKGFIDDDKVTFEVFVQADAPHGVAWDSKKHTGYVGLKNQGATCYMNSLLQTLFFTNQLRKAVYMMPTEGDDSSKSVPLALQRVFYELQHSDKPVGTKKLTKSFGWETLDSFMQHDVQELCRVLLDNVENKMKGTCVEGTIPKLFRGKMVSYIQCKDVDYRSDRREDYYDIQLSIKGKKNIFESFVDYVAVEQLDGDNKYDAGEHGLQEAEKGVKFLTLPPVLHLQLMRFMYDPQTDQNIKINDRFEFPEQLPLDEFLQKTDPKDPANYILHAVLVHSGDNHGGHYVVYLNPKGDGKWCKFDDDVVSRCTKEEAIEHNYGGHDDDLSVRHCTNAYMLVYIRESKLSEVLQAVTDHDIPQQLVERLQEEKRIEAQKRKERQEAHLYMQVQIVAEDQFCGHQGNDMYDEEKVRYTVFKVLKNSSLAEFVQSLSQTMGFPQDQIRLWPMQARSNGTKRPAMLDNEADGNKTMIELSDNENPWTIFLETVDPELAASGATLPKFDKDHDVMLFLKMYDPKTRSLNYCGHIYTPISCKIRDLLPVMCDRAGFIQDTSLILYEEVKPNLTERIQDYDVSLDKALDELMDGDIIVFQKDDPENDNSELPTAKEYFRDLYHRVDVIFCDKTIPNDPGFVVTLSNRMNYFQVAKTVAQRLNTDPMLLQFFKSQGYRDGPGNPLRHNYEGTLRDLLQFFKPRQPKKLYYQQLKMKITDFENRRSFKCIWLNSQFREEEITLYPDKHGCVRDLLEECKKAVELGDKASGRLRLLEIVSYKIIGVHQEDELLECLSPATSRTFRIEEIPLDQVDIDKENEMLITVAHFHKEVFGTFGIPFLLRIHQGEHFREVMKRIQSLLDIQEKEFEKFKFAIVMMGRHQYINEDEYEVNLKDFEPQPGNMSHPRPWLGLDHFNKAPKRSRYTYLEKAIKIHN
UniProt Q04207: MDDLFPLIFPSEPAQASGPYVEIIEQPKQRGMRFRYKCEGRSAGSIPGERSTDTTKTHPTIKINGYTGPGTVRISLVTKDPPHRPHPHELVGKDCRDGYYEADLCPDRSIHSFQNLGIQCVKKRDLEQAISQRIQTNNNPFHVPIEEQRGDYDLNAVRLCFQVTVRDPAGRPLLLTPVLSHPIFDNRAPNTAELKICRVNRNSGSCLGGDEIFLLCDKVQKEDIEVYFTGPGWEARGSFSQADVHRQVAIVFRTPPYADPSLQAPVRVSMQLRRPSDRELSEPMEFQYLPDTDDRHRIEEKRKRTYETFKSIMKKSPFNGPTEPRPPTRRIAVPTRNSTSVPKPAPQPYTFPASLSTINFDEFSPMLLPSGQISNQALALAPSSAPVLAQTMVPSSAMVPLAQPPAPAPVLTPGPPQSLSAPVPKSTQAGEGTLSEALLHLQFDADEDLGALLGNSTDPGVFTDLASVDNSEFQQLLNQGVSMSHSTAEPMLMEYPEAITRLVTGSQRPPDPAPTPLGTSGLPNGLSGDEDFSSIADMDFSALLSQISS

No constants are given. Whether binding was seen depends on the method and setting. In cells and extracts the contact can be indirect. Some results given as binding are weak or reduced against the parent protein; the word gives no strength.

This test deals with ubiquitin-specific protease 7 (endogenous in LLC and MC38 cells) (mouse (endogenous in LLC and MC38)) (UniProt Q6A4J8). As to the kind of experiment: co-IP; CoIP of USP7 and p65 in LLC cells with S100a1 shRNAs or scramble control and in MC38 cells with the S100a1 ORF or empty vector.

Turning to “NF-κB transcription factor p65 (endogenous in LLC and MC38 cells) (from UniProt Q04207 1-549)”, the binding entry is recorded as “binds”.
